Measurements from patent publication US10073097B2, “Diagnostic assays and methods of treating pneumonia, sepsis and systemic inflammatory response syndrome” (priority 2012, dated 2018).

Assay: Limulus Amoebocyte Lysate Assay for endotoxin associated with NDMPs
Parameters: species or system mice
Settings: endotoxin associated with NDMPs generated by the treatment

Row | Substance | [Endotoxin] [EU/mL]
1 | lipopolysaccharide [LPS] | 131.9 ± 25.7
2 | peptidoglycan [PepG] | 37.4 ± 31
3 | thioglycolate [3% TGA] | 26.4 ± 16.5
